Results deposited as PubChem BioAssay AID652272 (Drosophila RNAi Screening Center, 2013)
The screen tested about 21,000 reagents; this is a random part of those that have a named target and a result. Of all reagents, 503 (2.4%) are marked active. 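Raw plate light values, not normalised; calls rest on replicate z-scores that were not deposited; hits include reporter decreases as well as increases.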 A plus sign joins genes that one reagent is predicted to hit. No sequences are given here. The record does not give: the amount of reagent, the time to read-out.

Purpose: 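Genes whose knock-down decreases or increases Hedgehog reporter output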 (primary screen)
Cell system: Drosophila clone 8 (Cl8) cells
Reagent: long dsRNA against Drosophila genes
Measured: 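Plate reader light from a firefly reporter under a ptc promoter fragment that responds to Hedgehog, with Renilla light as transfection reference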
Scale: firefly Hh reporter signal: higher = more ptc reporter light; Renilla reference signal: higher = more Renilla control light
Call rule: 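Hit when the z-score averaged over two replicates is under -2 or over +3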
Meaning of the calls: active = hit: reporter lowered or raised; inactive = not a hit

| target | amplicon | firefly Hh reporter signal, replicate 1 | firefly Hh reporter signal, replicate 2 | firefly Hh reporter signal, replicate 3 | Renilla reference signal, replicate 1 | Renilla reference signal, replicate 2 | call |
| --- | --- | --- | --- | --- | --- | --- | --- |
| Cog8 | DRSC02961 | 91690 | 1.13e5 | – | 4250 | 4556 | inactive |
| CG2811 | DRSC04318 | 67857 | 68483 | – | 1760 | 4762 | inactive |
| CoRest | DRSC19881 | 1.46e5 | 1.39e5 | – | 2051 | 2885 | inactive |
| CG12974 | DRSC11684 | 1.34e5 | 1.28e5 | – | 4467 | 3488 | inactive |
| DUBAI + Tmem18 | DRSC05344 | 1.70e5 | 2.92e5 | – | 4268 | 12934 | inactive |
| CG42361 | DRSC04391 | 83130 | 65111 | – | 1432 | 4579 | inactive |
| CG11843 | DRSC14401 | 1.30e5 | 1.01e5 | – | 4854 | 2305 | inactive |
| rst | DRSC17243 | 4.87e5 | 1.70e5 | – | 25788 | 3845 | inactive |
| rst | DRSC18828 | 1.24e5 | 3.08e5 | – | 5313 | 11722 | inactive |
| Ku80 | DRSC02699 | 84515 | 56698 | – | 2496 | 5370 | inactive |
| hpRNA:CR18854 | DRSC02702 | 91879 | 49868 | – | 2274 | 4129 | inactive |
| CG32726 | DRSC17521 | 3.82e5 | 1.29e5 | – | 25463 | 3131 | inactive |
| Pkc98E | DRSC16791 | 88033 | 1.15e5 | – | 1282 | 2406 | inactive |
| ftz-f1 | DRSC11347 | 1.26e5 | – | – | 1548 | 2173 | inactive |
| mRpL4 | DRSC03562 | 77949 | 43046 | – | 3717 | 1760 | inactive |
| Ppm1 | DRSC08260 | 52032 | 42058 | – | 2198 | 3201 | inactive |
| Eip78C | DRSC11864 | 50664 | 44448 | – | 2304 | 1529 | inactive |
| Mur11Da | DRSC18960 | 7.67e5 | 3.01e5 | – | 33789 | 4679 | inactive |
| RpL39 | DRSC04651 | 33499 | 34884 | – | 1293 | 5392 | active |
| Drsl2 | DRSC08160 | 92230 | 59485 | – | 2194 | 5536 | inactive |
| Pect | DRSC02867 | 1.05e5 | 1.02e5 | – | 3808 | 3776 | inactive |
| Pect | DRSC02868 | 91498 | 50848 | – | 2731 | 4349 | inactive |
| Mvl | DRSC16752 | 1.02e5 | 84761 | – | 4048 | 3270 | inactive |
| Wdr82 | DRSC02595 | 2.15e5 | 7.27e5 | 1.32e5 | 8076 | 42995 | inactive |
| CG12766 | DRSC08295 | 1.06e5 | 54538 | – | 4070 | 5456 | inactive |
| CG13285 | DRSC09960 | 65357 | 81136 | – | 8288 | 5674 | inactive |
| mAcon2 | DRSC15629 | 60648 | 1.22e5 | – | 1910 | 3601 | inactive |
| CG34015 | DRSC19140 | 8.57e5 | 3.11e5 | – | 50944 | 7077 | inactive |
| Atg10 | DRSC06172 | 97347 | 75364 | – | 2176 | 5544 | inactive |
| EMC2B + EMC2A | DRSC15241 | 92856 | 94368 | – | 994 | 2450 | inactive |
| CG13685 | DRSC10043 | 60176 | 84546 | – | 7011 | 5813 | inactive |
| CG6693 | DRSC16097 | 1.19e5 | 76122 | – | 3673 | 2688 | inactive |
| CG3323 | DRSC18303 | 65158 | 1.75e5 | – | 2082 | 5952 | inactive |
| CG2663 | DRSC12314 | 94932 | 1.40e5 | – | 3304 | 3835 | inactive |
| CG31055 | DRSC13832 | 39106 | 2.64e5 | – | 11202 | 5956 | inactive |
| CG13625 | DRSC14627 | 91200 | 76754 | – | 4619 | 4251 | inactive |
| CG3021 | DRSC18165 | 55420 | 1.33e5 | – | 1517 | 5430 | inactive |
| CG3021 | DRSC18652 | 1.11e5 | 4.13e5 | – | 4306 | 16184 | inactive |
| sowah | DRSC09186 | 1.21e5 | 1.80e5 | – | 3738 | 8449 | inactive |
| sowah | DRSC09758 | 1.10e5 | 99024 | – | 4352 | 4122 | inactive |
| CG17292 | DRSC02594 | 1.10e5 | 94693 | – | 4311 | 3305 | inactive |
| pho | DRSC17219 | 61896 | 2.22e5 | – | 2465 | 9059 | inactive |
| TppII | DRSC07565 | 1.20e5 | 35952 | – | 4476 | 1298 | inactive |
| dop | DRSC10655 | 80786 | 32521 | – | 2806 | 1296 | inactive |
| CG3505 | DRSC15489 | 98010 | 78000 | – | 4408 | 3033 | inactive |
| Sema2b | DRSC05609 | 1.68e5 | 2.64e5 | – | 4682 | 9915 | inactive |
| Sema2b | DRSC05611 | 1.78e5 | 2.68e5 | – | 4765 | 10715 | inactive |
| Sema2b | DRSC06867 | 1.61e5 | 86844 | – | 3997 | 6404 | inactive |
| DIP-eta | DRSC02342 | 1.02e5 | 69426 | – | 2279 | 6827 | inactive |
| Obp8a | DRSC17868 | 83461 | 1.37e5 | – | 2195 | 4900 | inactive |
| CG14455 | DRSC11712 | 76007 | 1.12e5 | – | 2944 | 2984 | inactive |
| BthD | DRSC19395 | 1.26e5 | 3.63e5 | – | 3922 | 14032 | inactive |
| mal | DRSC20581 | 94273 | 1.05e5 | – | 2200 | 2584 | inactive |
| Ran | DRSC20364 | 33573 | 84800 | – | 824 | 4171 | inactive |
| Vps50 | DRSC06910 | 1.06e5 | 95030 | – | 4737 | 3608 | inactive |
| ClC-a | DRSC14947 | 56966 | 1.19e5 | – | 2210 | 3357 | inactive |
| ClC-a | DRSC14948 | 95914 | 1.62e5 | – | 3696 | 4608 | inactive |
| ClC-a | DRSC16142 | 1.24e5 | 67884 | – | 4490 | 2951 | inactive |
| Vha100-4 | DRSC16282 | 5.94e5 | 1.02e5 | – | 29483 | 2540 | inactive |
| CG10598 | DRSC19358 | 1.06e5 | 1.83e5 | – | 2080 | 8157 | inactive |
| CR46300 | DRSC12467 | 1.80e5 | – | – | 2775 | – | inactive |
| Or59b | DRSC04632 | 88258 | 46832 | – | 2424 | 4144 | inactive |
| Tsen2 | DRSC01557 | 96604 | 2.04e5 | – | 3205 | 9349 | inactive |
| JMJD7 | DRSC09703 | 6.11e5 | 1.31e5 | – | 5492 | 5492 | inactive |
| RpL13 | DRSC03416 | 2.33e5 | 28011 | – | 2544 | 2544 | active |
| Qsox2 | DRSC15287 | 1.05e5 | 66288 | – | 4168 | 2832 | inactive |
| CG15425 | DRSC00440 | 1.27e5 | 70265 | – | 1794 | 7760 | inactive |
| CG30016 | DRSC05242 | 1.21e5 | 1.88e5 | – | 3264 | 7900 | inactive |
| Sp7 | DRSC15461 | 78187 | 96352 | – | 2832 | 2721 | inactive |
| betaCOP | DRSC20312 | 59988 | 39316 | – | 1856 | 1445 | active |
| CG13248 | DRSC11696 | 1.05e5 | 1.11e5 | – | 3588 | 3075 | inactive |
| CG16854 | DRSC02536 | 1.21e5 | 83443 | – | 3724 | 7505 | inactive |
| CG32462 + asRNA:CR43426 | DRSC11851 | 1.34e5 | 1.11e5 | – | 5334 | 4141 | inactive |

Ordered by “Renilla reference signal, replicate 1” (ascending): 10 of the entries above
| target | amplicon | firefly Hh reporter signal, replicate 1 | firefly Hh reporter signal, replicate 2 | firefly Hh reporter signal, replicate 3 | Renilla reference signal, replicate 1 | Renilla reference signal, replicate 2 | call |
| --- | --- | --- | --- | --- | --- | --- | --- |
| Pkc98E | DRSC16791 | 88033 | 1.15e5 | – | 1282 | 2406 | inactive |
| RpL39 | DRSC04651 | 33499 | 34884 | – | 1293 | 5392 | active |
| ftz-f1 | DRSC11347 | 1.26e5 | – | – | 1548 | 2173 | inactive |
| Ppm1 | DRSC08260 | 52032 | 42058 | – | 2198 | 3201 | inactive |
| hpRNA:CR18854 | DRSC02702 | 91879 | 49868 | – | 2274 | 4129 | inactive |
| Eip78C | DRSC11864 | 50664 | 44448 | – | 2304 | 1529 | inactive |
| Ku80 | DRSC02699 | 84515 | 56698 | – | 2496 | 5370 | inactive |
| mRpL4 | DRSC03562 | 77949 | 43046 | – | 3717 | 1760 | inactive |
| CG32726 | DRSC17521 | 3.82e5 | 1.29e5 | – | 25463 | 3131 | inactive |
| Mur11Da | DRSC18960 | 7.67e5 | 3.01e5 | – | 33789 | 4679 | inactive |
